Experiments:
Type in all cases: cell-based
MCF7 (breast) = test: MTT in vitro cytotoxic activity assay, MCF7; details: Homo sapiens; MCF7 cells, exposed for 96 hours; read-out: Cytotoxicity activity IC50, MCF7 (breast)
Experimental: (§1) Compounds 1-20 were screened for their in vitro cytotoxic activity utilizing a 3-(4,5-dimethyl-thiazol-2-yl)-2,5-diphenyltetrazolium bromide (MTT) assay against selected cancer human cell lines consisting of PC3 (prostate), HCT 116 (colon), A375 (melanoma), H1299 (lung), MIAPaCa-2 (pancreas), HL60 (leukemia), MCF7 (breast), MDA-MB-231 (breast) (T. Mosmann, J. Immunol. Meth., 1983, 65, 55-63). The cells were cultured at 37° C. in RMPI1640 medium supplemented with 10% fetal bovine serum, 50 IU/mL penicillin, and 50 μg/mL streptomycin in a 5% CO2 incubator. All cells were sub-cultured 3 times/week by trypsinisation. Viable cells were seeded and allowed to adhere for 12 h before a test drug was added in 96-well plates at an initial density of 1.0×10^5 cells/mL. Tumor cell lines were separately exposed to various concentrations of the tested compounds followed by incubation at a temperature of 37° C. during 96 hours inside a medium of fresh RMPI 1640. Cells were subsequently incubated at 37° C. using MTT at 0.5 mg/mL during 4 hours. After removal of supernatant, formazan crystals were dissolved in isopropanol and the optical density was measured at 570 nm. CX-4945 was used as a positive control.

HL60 (leukemia) = test: MTT in vitro cytotoxic activity assay, HL60; details: Homo sapiens, HL-60; HL60 cells, exposed for 96 hours; read-out: Cytotoxicity activity IC50, HL60 (leukemia)
Experimental: as §1

H1299 (lung) = test: MTT in vitro cytotoxic activity assay, H1299; details: Homo sapiens, NCI-H1299; H1299 cells, exposed for 96 hours; read-out: Cytotoxicity activity IC50, H1299 (lung)
Experimental: as §1

MIAPaCa-2 (pancreas) = test: MTT in vitro cytotoxic activity assay, MIAPaCa-2; details: Homo sapiens, MIA PaCa-2; MIAPaCa-2 cells, exposed for 96 hours; read-out: Cytotoxicity activity IC50, MIAPaCa-2 (pancreas)
Experimental: as §1

HCT116 (colon) = test: MTT in vitro cytotoxic activity assay, HCT116; details: Homo sapiens, HCT-116; HCT116 cells, exposed for 96 hours; read-out: Cytotoxicity activity IC50, HCT116 (colon)
Experimental: as §1

A375 (melanoma) = test: MTT in vitro cytotoxic activity assay, A375; details: Homo sapiens, A-375; A375 cells, exposed for 96 hours; read-out: Cytotoxicity activity IC50, A375 (melanoma)
Experimental: as §1

PC3 (prostate) = test: MTT in vitro cytotoxic activity assay, PC3; details: Homo sapiens, PC-3; PC3 cells, exposed for 96 hours; read-out: Cytotoxicity activity IC50, PC3 (prostate)
Experimental: as §1

MDA-MB-231 (breast) = test: MTT in vitro cytotoxic activity assay, MDA-MB-231; details: Homo sapiens; MDA-MB-231 cells, exposed for 96 hours; read-out: Cytotoxicity activity IC50, MDA-MB-231 (breast)
Experimental: as §1

**Q.** How did the IC50 (MCF7 (breast)) turn out when `O=C(O)c1ccc2c(c1)nc(Nc1cccc(Cl)c1)c1ccncc12` [CX-4945, reference compound] was run?
**A.** Its IC50 is 9100 nM.

**Q.** What about the IC50 (HL60 (leukemia)) of the same compound?
**A.** The IC50 was 3700 nM.

**Q.** What about the IC50 (H1299 (lung)) of the same compound?
**A.** Its IC50 is 2300 nM.

**Q.** And the IC50 (MIAPaCa-2 (pancreas))?
**A.** Its IC50 is 1000 nM.

**Q.** What about the IC50 (HCT116 (colon)) of the same compound?
**A.** Its IC50 is 2300 nM.

**Q.** And the IC50 (A375 (melanoma))?
**A.** The IC50 was 4100 nM.

**Q.** And the IC50 (PC3 (prostate))?
**A.** Its IC50 is 2000 nM.

**Q.** What about the IC50 (MDA-MB-231 (breast)) of the same compound?
**A.** Its IC50 is 6200 nM.
